Data as given in PubChem BioAssay AID1224830 (NIAID, 2016).
Aim: 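Regulators of TLR4 signalling towards TNF-alpha in macrophage-like cells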 (primary screen). Cell system: human THP-1 monocytic leukaemia cells, TNF dual-luciferase reporter clone, PMA-differentiated to macrophage-like cells. Knock-down reagent: siRNA pool against human genes, 50 nM. Duration: LPS for 4 h, given about 3 days after siRNA transfection. Challenge: bacterial LPS (TLR4 ligand), 10 ng/ml. Detection: 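TNF firefly reporter luminescence divided by renilla, normalised to the plate median, then turned into a robust z-score for each replicate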. Direction: TNF reporter robust z-score: higher = stronger TNF reporter response to LPS. Rule for the call: 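a well is active when its z-score exceeds 2.8 or falls below -1.5; control wells carry no call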.
The whole screen tested about 18,000 reagents; this is an unselected part. About 2,900 of them (16%) were called active. 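Calls are made per well; low scores hint the gene aids the LPS response, high scores that it dampens it.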 Repeated entries: four replicate wells of each siRNA pool.

What did the screen give for RP9 (GeneID 6100)?
TNF reporter robust z-score: -0.79; call: inactive

What is on record for RP9 (GeneID 6100)?
TNF reporter robust z-score: -0.32; call: inactive

With RP9 (GeneID 6100), what was measured?
TNF reporter robust z-score: -0.08; call: inactive

What did the screen give for RP9 (GeneID 6100)?
TNF reporter robust z-score: -0.5; call: inactive

How did the screen score RANBP3 (GeneID 8498)?
TNF reporter robust z-score: 0.36; call: inactive

For RANBP3 (GeneID 8498), how do the results read?
TNF reporter robust z-score: 1.38; call: inactive

What is on record for RANBP3 (GeneID 8498)?
TNF reporter robust z-score: -0.6; call: inactive

For RANBP3 (GeneID 8498), what does the deposit list?
TNF reporter robust z-score: 1.15; call: inactive

With GAB2 (GeneID 9846), what does the deposit list?
TNF reporter robust z-score: -1.41; call: inactive

For GAB2 (GeneID 9846), what does the deposit list?
TNF reporter robust z-score: -0.64; call: inactive

With GAB2 (GeneID 9846), what does the deposit list?
TNF reporter robust z-score: -1.02; call: inactive

For GAB2 (GeneID 9846), what does the deposit list?
TNF reporter robust z-score: -1.38; call: inactive

With NINL (GeneID 22981), what was measured?
TNF reporter robust z-score: 0.82; call: inactive

For NINL (GeneID 22981), what does the deposit list?
TNF reporter robust z-score: -1.46; call: inactive

How did the screen score NINL (GeneID 22981)?
TNF reporter robust z-score: -0.87; call: inactive

How did the screen score NINL (GeneID 22981)?
TNF reporter robust z-score: -0.95; call: inactive

Which result is listed for CCL8 (GeneID 6355)?
TNF reporter robust z-score: 0.39; call: inactive

What is on record for CCL8 (GeneID 6355)?
TNF reporter robust z-score: -0.11; call: inactive

For CCL8 (GeneID 6355), how do the results read?
TNF reporter robust z-score: 1.07; call: inactive

For CCL8 (GeneID 6355), what was measured?
TNF reporter robust z-score: 0.97; call: inactive

Records listed so far whose gene name starts with G or g (4):
GAB2 (GeneID 9846): TNF reporter robust z-score = -1.41; call = inactive
GAB2 (GeneID 9846): TNF reporter robust z-score = -0.64; call = inactive
GAB2 (GeneID 9846): TNF reporter robust z-score = -1.02; call = inactive
GAB2 (GeneID 9846): TNF reporter robust z-score = -1.38; call = inactive

Further entries follow:
With SYNE4 (GeneID 163183), what does the deposit list?
TNF reporter robust z-score: -1.52; call: active

What is on record for SYNE4 (GeneID 163183)?
TNF reporter robust z-score: -0.64; call: inactive

What did the screen give for SYNE4 (GeneID 163183)?
TNF reporter robust z-score: 0.28; call: inactive

With SYNE4 (GeneID 163183), what does the deposit list?
TNF reporter robust z-score: -0.9; call: inactive

How did the screen score UROS (GeneID 7390)?
call: inactive

For UROS (GeneID 7390), how do the results read?
TNF reporter robust z-score: 0.8; call: inactive

With UROS (GeneID 7390), how do the results read?
TNF reporter robust z-score: 0.09; call: inactive

For UROS (GeneID 7390), how do the results read?
TNF reporter robust z-score: 1.78; call: inactive

With UROS (GeneID 7390), what was measured?
TNF reporter robust z-score: -0.77; call: inactive

What is on record for CORO1C (GeneID 23603)?
TNF reporter robust z-score: 0.31; call: inactive

With CORO1C (GeneID 23603), what was measured?
TNF reporter robust z-score: 2.58; call: inactive

For CORO1C (GeneID 23603), how do the results read?
TNF reporter robust z-score: -0.39; call: inactive

What did the screen give for CORO1C (GeneID 23603)?
TNF reporter robust z-score: -0.75; call: inactive

For PTGS2 (GeneID 5743), how do the results read?
TNF reporter robust z-score: -0.35; call: inactive

What is on record for PTGS2 (GeneID 5743)?
TNF reporter robust z-score: -0.63; call: inactive

What did the screen give for PTGS2 (GeneID 5743)?
TNF reporter robust z-score: 0.65; call: inactive

Which result is listed for PTGS2 (GeneID 5743)?
TNF reporter robust z-score: 0.37; call: inactive

Which result is listed for PEX12 (GeneID 5193)?
TNF reporter robust z-score: 0.12; call: inactive

What is on record for PEX12 (GeneID 5193)?
TNF reporter robust z-score: 0.02; call: inactive

What is on record for PEX12 (GeneID 5193)?
TNF reporter robust z-score: 0.41; call: inactive

What did the screen give for PEX12 (GeneID 5193)?
TNF reporter robust z-score: -0.27; call: inactive

With TRMT112 (GeneID 51504), how do the results read?
TNF reporter robust z-score: 0.73; call: inactive

Which result is listed for TRMT112 (GeneID 51504)?
TNF reporter robust z-score: 1.27; call: inactive

How did the screen score TRMT112 (GeneID 51504)?
TNF reporter robust z-score: 1.29; call: inactive

With TRMT112 (GeneID 51504), what does the deposit list?
TNF reporter robust z-score: 0.97; call: inactive

For GJB7 (GeneID 375519), how do the results read?
TNF reporter robust z-score: 0.06; call: inactive

For GJB7 (GeneID 375519), how do the results read?
TNF reporter robust z-score: 1.18; call: inactive

With GJB7 (GeneID 375519), how do the results read?
TNF reporter robust z-score: 0.54; call: inactive

For GJB7 (GeneID 375519), what does the deposit list?
TNF reporter robust z-score: 0.13; call: inactive
